The list shows a part of the results.
Legend:
Experiment in all cases: log2 fold change, soluble protein after heating vs DMSO (PISA); higher = thermal stabilisation; K562 lysate, 10 uM; active = over 0.2 and 3.5 SD of the protein, either way, in both replicates (recomputed)
pictilisib = compound: CS(=O)(=O)N1CCN(Cc2cc3nc(-c4cccc5[nH]ncc45)nc(N4CCOCC4)c3s2)CC1 [pictilisib]
Procedure, shortened: (§1)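 K562 pellets were dounce-homogenised in PBS pH 7.4 with 1 mM MgCl2, and the crude extract at 1 mg/mL protein was treated with 10 μM compound for 30 min. Aliquots were heated for 3 min across 48°C-58°C, pooled, and brought to 0.5% NP-40 at 4°C; soluble protein was the supernatant after 21,000xg for 90 min. Soluble protein was quantified by TMTpro 16plex LC-MS/MS with channel sums equalised, and reported as log2 fold change in thermal stability against DMSO controls, with values from duplicates.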

Protein sequences, listed by entry. Tags and fused reporters are not part of them. Lines headed by an entry give the natural chain unless they say otherwise; changes in a name come on top.
UniProt Q02086: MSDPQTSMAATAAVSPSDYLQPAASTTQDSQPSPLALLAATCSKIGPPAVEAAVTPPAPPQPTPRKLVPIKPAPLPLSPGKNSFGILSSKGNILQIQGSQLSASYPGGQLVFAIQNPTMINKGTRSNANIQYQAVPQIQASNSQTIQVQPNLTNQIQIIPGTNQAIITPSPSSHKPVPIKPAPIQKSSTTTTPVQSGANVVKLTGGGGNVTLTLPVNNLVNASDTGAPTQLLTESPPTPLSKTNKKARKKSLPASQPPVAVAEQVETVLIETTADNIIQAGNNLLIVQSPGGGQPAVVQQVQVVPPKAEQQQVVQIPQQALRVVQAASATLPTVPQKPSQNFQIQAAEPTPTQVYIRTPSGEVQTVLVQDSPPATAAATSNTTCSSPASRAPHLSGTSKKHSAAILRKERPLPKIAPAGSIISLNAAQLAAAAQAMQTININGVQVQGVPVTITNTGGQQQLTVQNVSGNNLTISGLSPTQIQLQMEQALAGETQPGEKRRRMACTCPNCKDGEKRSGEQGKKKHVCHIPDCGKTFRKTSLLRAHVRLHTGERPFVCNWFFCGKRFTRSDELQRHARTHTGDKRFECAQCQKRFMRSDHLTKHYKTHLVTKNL
UniProt Q92966: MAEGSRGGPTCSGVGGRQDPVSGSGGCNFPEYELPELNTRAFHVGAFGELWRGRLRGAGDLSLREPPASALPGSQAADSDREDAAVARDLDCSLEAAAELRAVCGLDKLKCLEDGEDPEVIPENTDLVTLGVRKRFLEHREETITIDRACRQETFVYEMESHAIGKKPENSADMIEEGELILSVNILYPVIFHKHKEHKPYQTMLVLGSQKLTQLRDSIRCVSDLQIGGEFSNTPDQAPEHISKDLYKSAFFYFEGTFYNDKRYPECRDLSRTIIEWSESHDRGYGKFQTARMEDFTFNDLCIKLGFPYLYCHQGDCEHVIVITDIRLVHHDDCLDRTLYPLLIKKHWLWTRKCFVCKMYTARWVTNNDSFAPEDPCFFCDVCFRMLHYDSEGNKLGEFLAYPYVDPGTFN
UniProt P09486: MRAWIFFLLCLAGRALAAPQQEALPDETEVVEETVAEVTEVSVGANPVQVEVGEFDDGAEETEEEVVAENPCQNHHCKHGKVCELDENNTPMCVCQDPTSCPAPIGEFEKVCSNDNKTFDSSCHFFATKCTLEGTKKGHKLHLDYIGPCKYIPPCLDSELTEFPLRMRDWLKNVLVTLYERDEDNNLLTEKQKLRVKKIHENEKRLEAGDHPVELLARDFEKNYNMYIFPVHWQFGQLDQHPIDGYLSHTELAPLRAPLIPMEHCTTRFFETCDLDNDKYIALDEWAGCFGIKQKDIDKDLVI
UniProt Q6STE5, whole entry, looked up: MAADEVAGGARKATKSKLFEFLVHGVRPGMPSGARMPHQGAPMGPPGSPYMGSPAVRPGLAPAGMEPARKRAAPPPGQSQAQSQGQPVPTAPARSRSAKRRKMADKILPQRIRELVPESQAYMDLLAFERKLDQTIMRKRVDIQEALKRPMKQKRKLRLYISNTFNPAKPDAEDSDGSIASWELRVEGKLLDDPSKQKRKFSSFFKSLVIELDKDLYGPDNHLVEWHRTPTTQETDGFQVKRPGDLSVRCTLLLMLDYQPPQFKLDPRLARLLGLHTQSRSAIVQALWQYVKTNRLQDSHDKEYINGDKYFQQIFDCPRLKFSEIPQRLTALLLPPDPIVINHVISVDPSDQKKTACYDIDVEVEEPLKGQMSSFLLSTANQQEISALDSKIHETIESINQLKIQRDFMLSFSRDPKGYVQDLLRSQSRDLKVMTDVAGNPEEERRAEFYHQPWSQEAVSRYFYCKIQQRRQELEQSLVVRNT
UniProt Q9Y5X0: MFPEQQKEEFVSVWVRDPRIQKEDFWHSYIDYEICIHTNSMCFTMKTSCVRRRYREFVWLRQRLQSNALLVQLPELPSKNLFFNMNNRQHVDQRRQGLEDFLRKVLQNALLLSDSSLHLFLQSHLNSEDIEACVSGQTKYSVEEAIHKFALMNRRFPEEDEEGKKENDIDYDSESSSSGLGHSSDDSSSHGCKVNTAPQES
UniProt P17405: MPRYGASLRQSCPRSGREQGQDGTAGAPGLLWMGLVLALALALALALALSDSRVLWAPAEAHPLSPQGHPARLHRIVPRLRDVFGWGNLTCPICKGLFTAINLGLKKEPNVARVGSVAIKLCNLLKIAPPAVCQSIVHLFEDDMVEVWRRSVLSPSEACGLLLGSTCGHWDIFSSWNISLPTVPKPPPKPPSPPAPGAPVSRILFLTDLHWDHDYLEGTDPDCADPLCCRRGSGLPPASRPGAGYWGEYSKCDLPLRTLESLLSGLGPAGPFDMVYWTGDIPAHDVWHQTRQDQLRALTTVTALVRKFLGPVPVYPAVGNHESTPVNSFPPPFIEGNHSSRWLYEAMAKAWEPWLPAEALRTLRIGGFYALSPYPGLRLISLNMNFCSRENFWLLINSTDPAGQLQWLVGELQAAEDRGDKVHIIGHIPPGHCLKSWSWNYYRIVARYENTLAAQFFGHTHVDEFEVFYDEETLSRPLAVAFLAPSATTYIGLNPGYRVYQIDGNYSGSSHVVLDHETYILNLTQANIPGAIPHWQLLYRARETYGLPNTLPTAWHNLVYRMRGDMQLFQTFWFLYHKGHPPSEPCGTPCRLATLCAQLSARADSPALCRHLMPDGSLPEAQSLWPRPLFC
UniProt Q92543: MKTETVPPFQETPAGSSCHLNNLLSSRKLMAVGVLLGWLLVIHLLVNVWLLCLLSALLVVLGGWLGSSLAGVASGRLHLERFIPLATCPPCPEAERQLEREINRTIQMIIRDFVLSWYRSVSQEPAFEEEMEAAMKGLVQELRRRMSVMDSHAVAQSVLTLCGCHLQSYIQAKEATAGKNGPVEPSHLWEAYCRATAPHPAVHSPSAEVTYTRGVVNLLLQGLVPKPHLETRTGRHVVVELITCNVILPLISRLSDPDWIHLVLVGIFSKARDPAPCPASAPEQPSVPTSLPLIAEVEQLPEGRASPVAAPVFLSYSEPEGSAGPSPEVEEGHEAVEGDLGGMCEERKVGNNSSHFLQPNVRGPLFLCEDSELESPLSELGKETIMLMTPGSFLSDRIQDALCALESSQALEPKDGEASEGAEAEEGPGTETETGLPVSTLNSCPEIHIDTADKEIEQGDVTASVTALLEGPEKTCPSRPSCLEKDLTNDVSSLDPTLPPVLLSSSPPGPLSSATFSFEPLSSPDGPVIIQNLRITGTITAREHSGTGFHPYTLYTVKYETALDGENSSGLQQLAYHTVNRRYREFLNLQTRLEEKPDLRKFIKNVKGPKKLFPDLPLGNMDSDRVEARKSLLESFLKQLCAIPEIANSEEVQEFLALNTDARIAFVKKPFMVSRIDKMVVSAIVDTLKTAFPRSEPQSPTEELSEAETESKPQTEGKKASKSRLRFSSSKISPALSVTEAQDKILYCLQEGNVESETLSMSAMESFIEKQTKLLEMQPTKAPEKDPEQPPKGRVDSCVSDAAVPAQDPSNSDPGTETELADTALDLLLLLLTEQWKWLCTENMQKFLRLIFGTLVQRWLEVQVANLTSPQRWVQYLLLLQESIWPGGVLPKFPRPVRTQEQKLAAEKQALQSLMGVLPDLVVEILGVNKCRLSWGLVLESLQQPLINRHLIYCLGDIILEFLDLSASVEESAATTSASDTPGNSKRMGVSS
UniProt Q9BT81: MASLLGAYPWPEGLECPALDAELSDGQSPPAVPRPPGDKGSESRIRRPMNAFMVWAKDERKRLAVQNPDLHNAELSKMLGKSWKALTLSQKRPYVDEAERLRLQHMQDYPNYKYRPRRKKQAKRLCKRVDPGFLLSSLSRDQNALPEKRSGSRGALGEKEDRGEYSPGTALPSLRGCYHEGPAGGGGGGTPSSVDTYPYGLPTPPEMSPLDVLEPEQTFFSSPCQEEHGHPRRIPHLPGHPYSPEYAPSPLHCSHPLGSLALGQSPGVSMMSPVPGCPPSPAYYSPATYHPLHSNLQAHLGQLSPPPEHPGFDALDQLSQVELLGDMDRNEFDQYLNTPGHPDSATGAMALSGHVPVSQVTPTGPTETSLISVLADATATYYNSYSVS
UniProt O15370: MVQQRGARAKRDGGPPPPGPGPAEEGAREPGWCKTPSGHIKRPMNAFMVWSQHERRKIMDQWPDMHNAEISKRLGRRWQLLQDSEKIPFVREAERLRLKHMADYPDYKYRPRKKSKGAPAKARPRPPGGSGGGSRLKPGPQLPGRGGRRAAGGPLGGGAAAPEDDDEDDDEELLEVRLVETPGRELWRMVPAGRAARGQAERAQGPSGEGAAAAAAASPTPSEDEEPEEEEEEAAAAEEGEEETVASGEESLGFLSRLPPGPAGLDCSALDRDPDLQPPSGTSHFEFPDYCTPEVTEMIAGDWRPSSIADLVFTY
UniProt O75971: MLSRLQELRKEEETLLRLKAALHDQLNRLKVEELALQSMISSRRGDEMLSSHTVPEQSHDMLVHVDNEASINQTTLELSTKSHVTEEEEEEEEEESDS
UniProt P02814: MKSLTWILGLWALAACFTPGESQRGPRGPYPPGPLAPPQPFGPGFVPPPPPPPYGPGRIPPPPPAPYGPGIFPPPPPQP
UniProt Q16533: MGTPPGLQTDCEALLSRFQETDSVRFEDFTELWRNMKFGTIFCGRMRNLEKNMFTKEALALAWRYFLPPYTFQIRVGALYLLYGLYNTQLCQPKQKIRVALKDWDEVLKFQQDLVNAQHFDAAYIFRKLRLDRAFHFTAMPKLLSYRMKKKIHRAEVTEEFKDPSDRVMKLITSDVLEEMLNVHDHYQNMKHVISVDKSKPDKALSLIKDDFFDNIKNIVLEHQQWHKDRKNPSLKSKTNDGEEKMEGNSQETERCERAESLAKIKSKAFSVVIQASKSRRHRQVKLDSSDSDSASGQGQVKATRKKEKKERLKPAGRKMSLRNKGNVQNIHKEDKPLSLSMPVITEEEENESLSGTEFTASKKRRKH
UniProt Q9H3E2: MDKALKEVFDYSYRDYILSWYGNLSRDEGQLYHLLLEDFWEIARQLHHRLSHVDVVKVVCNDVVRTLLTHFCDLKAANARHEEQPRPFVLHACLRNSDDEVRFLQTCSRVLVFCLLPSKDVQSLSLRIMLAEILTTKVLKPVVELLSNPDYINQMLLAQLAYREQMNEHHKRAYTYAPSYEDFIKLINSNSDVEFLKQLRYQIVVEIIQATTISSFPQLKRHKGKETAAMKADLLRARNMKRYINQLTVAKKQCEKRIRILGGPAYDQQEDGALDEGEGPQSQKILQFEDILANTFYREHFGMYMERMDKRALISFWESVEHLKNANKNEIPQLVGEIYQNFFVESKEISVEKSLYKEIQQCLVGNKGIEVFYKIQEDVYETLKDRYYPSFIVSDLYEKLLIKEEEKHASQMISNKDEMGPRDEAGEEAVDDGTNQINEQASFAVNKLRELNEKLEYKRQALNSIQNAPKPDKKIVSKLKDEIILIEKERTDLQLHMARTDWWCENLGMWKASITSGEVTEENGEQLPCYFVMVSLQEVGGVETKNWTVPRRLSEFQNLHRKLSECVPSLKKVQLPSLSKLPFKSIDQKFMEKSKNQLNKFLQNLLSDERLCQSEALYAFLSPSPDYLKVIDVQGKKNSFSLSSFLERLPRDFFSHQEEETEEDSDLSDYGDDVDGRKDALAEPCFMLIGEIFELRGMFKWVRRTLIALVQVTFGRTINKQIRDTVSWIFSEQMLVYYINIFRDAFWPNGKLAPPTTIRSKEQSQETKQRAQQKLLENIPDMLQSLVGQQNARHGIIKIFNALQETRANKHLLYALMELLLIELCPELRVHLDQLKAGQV
UniProt Q9BV90: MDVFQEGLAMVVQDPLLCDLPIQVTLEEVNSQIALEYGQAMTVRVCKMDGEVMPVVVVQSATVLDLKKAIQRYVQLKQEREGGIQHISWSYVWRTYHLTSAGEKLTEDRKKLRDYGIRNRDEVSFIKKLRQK
UniProt Q8WV41: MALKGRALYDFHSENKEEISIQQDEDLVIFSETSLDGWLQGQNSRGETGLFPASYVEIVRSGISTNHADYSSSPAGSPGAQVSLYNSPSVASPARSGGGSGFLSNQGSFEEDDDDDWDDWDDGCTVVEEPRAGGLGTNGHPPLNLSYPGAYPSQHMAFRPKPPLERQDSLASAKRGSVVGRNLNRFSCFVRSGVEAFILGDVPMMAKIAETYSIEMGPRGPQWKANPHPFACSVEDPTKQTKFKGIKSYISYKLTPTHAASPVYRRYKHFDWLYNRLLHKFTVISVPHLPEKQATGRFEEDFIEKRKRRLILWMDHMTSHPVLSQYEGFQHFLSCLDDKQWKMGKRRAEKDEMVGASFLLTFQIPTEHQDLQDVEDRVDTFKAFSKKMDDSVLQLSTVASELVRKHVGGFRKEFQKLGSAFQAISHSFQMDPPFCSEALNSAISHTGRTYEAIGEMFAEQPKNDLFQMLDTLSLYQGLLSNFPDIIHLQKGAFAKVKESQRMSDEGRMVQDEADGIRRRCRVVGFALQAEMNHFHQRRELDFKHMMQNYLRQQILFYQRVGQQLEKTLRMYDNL

crizotinib = compound: C[C@@H](Oc1cc(-c2cnn(C3CCNCC3)c2)cnc1N)c1c(Cl)ccc(F)c1Cl [crizotinib]
Procedure, shortened: as §1

duvelisib = compound: C[C@H](Nc1ncnc2nc[nH]c12)c1cc2cccc(Cl)c2c(=O)n1-c1ccccc1 [duvelisib]
Procedure, shortened: as §1

tozasertib = compound: Cc1cc(Nc2cc(N3CCN(C)CC3)nc(Sc3ccc(NC(=O)C4CC4)cc3)n2)n[nH]1 [tozasertib]
Procedure, shortened: as §1

doramapimod = compound: Cc1ccc(-n2nc(C(C)(C)C)cc2NC(=O)Nc2ccc(OCCN3CCOCC3)c3ccccc23)cc1 [doramapimod]
Procedure, shortened: as §1

bafetinib = compound: Cc1ccc(NC(=O)c2ccc(CN3CC[C@H](N(C)C)C3)c(C(F)(F)F)c2)cc1Nc1nccc(-c2cncnc2)n1 [bafetinib]
Procedure, shortened: as §1

nilotinib = compound: Cc1cn(-c2cc(NC(=O)c3ccc(C)c(Nc4nccc(-c5cccnc5)n4)c3)cc(C(F)(F)F)c2)cn1 [nilotinib]
Procedure, shortened: as §1

[1] = compound: Cc1nc(Nc2n[nH]c3c2CN(C(=O)N[C@H](CN(C)C)c2ccccc2)C3(C)C)c2sccc2n1
Procedure, shortened: as §1

dasatinib = compound: Cc1nc(Nc2ncc(C(=O)Nc3c(C)cccc3Cl)s2)cc(N2CCN(CCO)CC2)n1 [dasatinib]
Procedure, shortened: as §1

[2] = compound: Cc1ncc(-c2ccnc(Nc3ccc(S(C)(=O)=O)cc3)n2)n1C(C)C
Procedure, shortened: as §1

[3] = compound: Cn1cc(-c2ccc3c(c2)CCN3C(=O)Cc2cccc(C(F)(F)F)c2)c2c(N)ncnc21
Procedure, shortened: as §1

quisinostat = compound: Cn1cc(CNCC2CCN(c3ncc(C(=O)NO)cn3)CC2)c2ccccc21 [quisinostat]
Procedure, shortened: as §1

tipifarnib = compound: Cn1cncc1[C@@](N)(c1ccc(Cl)cc1)c1ccc2c(c1)c(-c1cccc(Cl)c1)cc(=O)n2C [tipifarnib]
Procedure, shortened: as §1

[4] = compound: NC(=O)Nc1cc(-c2cccc(F)c2)sc1C(=O)N[C@H]1CCCNC1
Procedure, shortened: as §1

[5] = compound: NC1(c2ccc(-c3nc4ccn5c(=O)[nH]nc5c4cc3-c3ccccc3)cc2)CCC1
Procedure, shortened: as §1

[6] = compound: C[C@H](C1=CC=C(C=C1)C(=O)NC2=C3C=CNC3=NC=C2)N
Procedure, shortened: as §1

gandotinib = compound: Cc1cc(Nc2cc(CN3CCOCC3)c3nc(C)c(Cc4ccc(Cl)cc4F)n3n2)n[nH]1 [gandotinib]
Procedure, shortened: as §1

[7] = compound: Cc1cccc(CC(=O)N2CCc3c2ccc(-c2cn(C)c4ncnc(N)c24)c3F)n1
Procedure, shortened: as §1

Measured: log2 fold change

SP2 (UniProt Q02086)
inactive: pictilisib -0.182 | crizotinib -0.192 | duvelisib 0.032 | tozasertib -0.04 | doramapimod -0.046 | bafetinib 0.016 | nilotinib 0.15 | [1] -0.053 | dasatinib -0.183 | [2] 0.04 | [3] 0.149 | quisinostat 0.067 | tipifarnib 0.029 | [4] 0.089

SNX13 (UniProt Q9Y5W8)
inactive: pictilisib -0.117 | crizotinib -0.075 | duvelisib -0.066 | doramapimod 0.118 | bafetinib -0.124 | dasatinib 0.066 | [3] -0.061 | quisinostat 0.083 | [4] 0.01 | [5] 0.023

SNAPC3 (UniProt Q92966)
inactive: pictilisib 0.146 | crizotinib 0.085 | [6] -0.056 | duvelisib -0.033 | gandotinib -0.098 | tozasertib 0.133 | doramapimod -0.036 | bafetinib -0.059 | [7] 0.059 | nilotinib -0.035 | [1] -0.053 | dasatinib -0.049 | [2] 0.042 | [3] -0.105 | quisinostat -0.053 | tipifarnib -0.044 | [4] 0.081 | [5] 0.094

SPARC (UniProt P09486)
inactive: pictilisib 0.025 | crizotinib 0.054 | [6] 0.057 | duvelisib 0.024 | gandotinib -0.045 | tozasertib 0.062 | doramapimod -0.062 | bafetinib -0.075 | [7] 0.049 | dasatinib 0.003 | [3] 0.021 | quisinostat 0.094 | [4] 0.059 | [5] -0.071

SMARCD3 (UniProt Q6STE5)
inactive: duvelisib -0.014 | dasatinib 0.017 | [3] 0.018 | [5] -0.048

SNX10 (UniProt Q9Y5X0)
inactive: crizotinib -0.064 | duvelisib -0.04 | doramapimod 0.002 | dasatinib -0.156 | [3] 0.144 | quisinostat -0.238 | [4] 0.084 | [5] 0.018

SMPD1 (UniProt P17405)
inactive: pictilisib -0.13 | crizotinib 0.109 | duvelisib 0.111 | doramapimod -0.024 | bafetinib 0 | nilotinib 0.063 | [1] -0.209 | dasatinib -0.04 | [2] -0.1 | [3] 0.068 | quisinostat 0.127 | tipifarnib 0.047 | [4] -0.048 | [5] -0.013

SNAPC4 (UniProt Q5SXM2)
inactive: pictilisib -0.054 | [6] 0.002 | gandotinib -0.109 | tozasertib 0.012 | bafetinib -0.022 | [7] 0.041 | nilotinib 0.05 | [1] -0.086 | [2] 0.002 | tipifarnib -0.063

SNX19 (UniProt Q92543)
inactive: crizotinib 0.021 | [6] -0.165 | duvelisib -0.027 | gandotinib 0.032 | tozasertib -0.067 | doramapimod -0.042 | [7] 0.047 | nilotinib -0.045 | [1] -0.08 | dasatinib 0.018 | [2] 0.084 | [3] 0.11 | quisinostat -0.008 | tipifarnib 0.013 | [4] 0.071 | [5] 0.089

SOX6 (UniProt P35712)
inactive: pictilisib -0.141 | crizotinib -0.119 | [6] -0.042 | duvelisib -0.123 | gandotinib 0.04 | tozasertib 0.043 | doramapimod 0.084 | bafetinib -0.026 | [7] 0.005 | nilotinib 0.092 | [1] 0.14 | dasatinib 0.066 | [2] -0.076 | [3] 0.026 | quisinostat -0.149 | tipifarnib 0.024 | [4] -0.049 | [5] -0.122

SOX7 isoform 2 (UniProt Q9BT81)
inactive: pictilisib -0.016 | [6] 0.209 | gandotinib -0.147 | bafetinib -0.052 | [7] -0.165 | nilotinib 0.071 | [1] 0.076 | [2] 0.148 | tipifarnib 0.055 | [5] -0.147

SOX12 (UniProt O15370)
inactive: pictilisib -0.009 | crizotinib 0.043 | [6] -0.03 | duvelisib -0.073 | gandotinib 0.282 | doramapimod 0.012 | bafetinib -0.055 | [7] -0.003 | dasatinib -0.073 | [3] -0.246 | quisinostat -0.012 | [4] -0.059

SNAPC5 (UniProt O75971)
inactive: [6] 0.111 | gandotinib -0.162 | [7] -0.073 | nilotinib 0.059 | [1] 0.263 | [2] 0.066 | tipifarnib -0.17

SMR3B (UniProt P02814)
inactive: crizotinib 0.17 | [6] -0.015 | gandotinib -0.321 | tozasertib -0.015 | doramapimod -0.016 | [7] 0.01 | quisinostat -0.277 | [4] 0.066

SNAPC1 (UniProt Q16533)
inactive: crizotinib 0.077 | doramapimod -0.066 | nilotinib -0.099 | [1] 0.133 | [2] -0.206 | quisinostat -0.1 | tipifarnib -0.011 | [4] 0.07

Copied from the listing (four entries):
SOX7 isoform 2 (UniProt Q9BT81)
inactive: pictilisib -0.016 | [6] 0.209 | gandotinib -0.147 | bafetinib -0.052 | [7] -0.165 | nilotinib 0.071 | [1] 0.076 | [2] 0.148 | tipifarnib 0.055 | [5] -0.147

SOX12 (UniProt O15370)
inactive: pictilisib -0.009 | crizotinib 0.043 | [6] -0.03 | duvelisib -0.073 | gandotinib 0.282 | doramapimod 0.012 | bafetinib -0.055 | [7] -0.003 | dasatinib -0.073 | [3] -0.246 | quisinostat -0.012 | [4] -0.059

SNAPC5 (UniProt O75971)
inactive: [6] 0.111 | gandotinib -0.162 | [7] -0.073 | nilotinib 0.059 | [1] 0.263 | [2] 0.066 | tipifarnib -0.17

SMR3B (UniProt P02814)
inactive: crizotinib 0.17 | [6] -0.015 | gandotinib -0.321 | tozasertib -0.015 | doramapimod -0.016 | [7] 0.01 | quisinostat -0.277 | [4] 0.066

Further entries follow.

SNX25 (UniProt Q9H3E2)
inactive: crizotinib 0.061 | duvelisib -0.037 | tozasertib 0.01 | doramapimod -0.058 | dasatinib -0.036 | [3] 0.046 | quisinostat 0.097 | [4] 0.025 | [5] 0.072

SNRNP25 (UniProt Q9BV90)
inactive: pictilisib 0.037 | bafetinib -0.095 | nilotinib 0.02 | [1] 0.078 | [2] 0.061 | tipifarnib 0.094

SMIM26, A0A096LP01
inactive: [6] -0.047 | gandotinib -0.064 | [7] -0.012 | nilotinib 0.158 | [1] 0.073 | [2] -0.092 | tipifarnib -0.059

SNX33 (UniProt Q8WV41)
inactive: pictilisib 0.033 | crizotinib -0.058 | duvelisib 0.085 | doramapimod -0.035 | bafetinib -0.001 | nilotinib 0.021 | [1] -0.066 | dasatinib 0.041 | [2] -0.015 | [3] -0.047 | quisinostat -0.151 | tipifarnib 0.067 | [4] 0.139
